In PMC11058800:
No constants are given. Whether binding was seen depends on the method and setting.

How the values were obtained:
[1] = molecular target: SRCRD11 (1371-1489) of DMBT1 released from Trx-His6-TEV-SRCRD by TEV protease (human) (UniProt Q9UGM3); experiment: SEC; Superdex 200 10/300 GL, 20 mM Tris-HCl (pH 8.0), 200 mM NaCl; refolded SRCRD loaded; both purified
[2] = molecular target: SRCRD11 (1371-1489) of the deleted in malignant brain tumors 1 (DMBT1) protein, untagged construct (SRCRD only) (human) (UniProt Q9UGM3); experiment: as above

Row | Substance | binding [1] | binding [2]
1 | SRCRD11 (1371-1489) of DMBT1 released from Trx-His6-TEV-SRCRD by TEV protease (from UniProt Q9UGM3 1371-1489) (domain or fragment) | no binding | –
2 | SRCRD11 (1371-1489) of the deleted in malignant brain tumors 1 (DMBT1) protein, untagged construct (SRCRD only) (from UniProt Q9UGM3 1371-1489) (domain or fragment) | – | no binding
